Drawing on PMC11514929, this text covers binding for 1 molecule.

The test concerns the target FLAG-Akt. As to the kind of experiment: co-IP; FLAG-tagged bait immunoprecipitated with anti-FLAG M2 agarose beads overnight at 4 °C from RIPA lysates of transfected HEK-293 cells; blots for GFP or HA; cells treated with dopamine (10 μM), quinpirole (100 nM) or isoproterenol (10 μM) for 5 min and washed/rechallenged, or with 10 ng/mL EGF (5 or 20 min, or washed/rechallenged).

These are yes or no findings as the source states them, for the method shown. Binding seen in cells or lysates may run through a third protein. Binding can be weak; no strength is given. Tags and fused reporters may be left off the sequences shown.

B1: HA-USP33 (enzyme, UniProt Q8TEY7 1-942)
chain: MTGSNSHITILTLKVLPHFESLGKQEKIPNKMSAFRNHCPHLDSVGEITKEDLIQKSLGTCQDCKVQGPNLWACLENRCSYVGCGESQVDHSTIHSQETKHYLTVNLTTLRVWCYACSKEVFLDRKLGTQPSLPHVRQPHQIQENSVQDFKIPSNTTLKTPLVAVFDDLDIEADEEDELRARGLTGLKNIGNTCYMNAALQALSNCPPLTQFFLDCGGLARTDKKPAICKSYLKLMTELWHKSRPGSVVPTTLFQGIKTVNPTFRGYSQQDAQEFLRCLMDLLHEELKEQVMEVEEDPQTITTEETMEEDKSQSDVDFQSCESCSNSDRAENENGSRCFSEDNNETTMLIQDDENNSEMSKDWQKEKMCNKINKVNSEGEFDKDRDSISETVDLNNQETVKVQIHSRASEYITDVHSNDLSTPQILPSNEGVNPRLSASPPKSGNLWPGLAPPHKKAQSASPKRKKQHKKYRSVISDIFDGTIISSVQCLTCDRVSVTLETFQDLSLPIPGKEDLAKLHSSSHPTSIVKAGSCGEAYAPQGWIAFFMEYVKRFVVSCVPSWFWGPVVTLQDCLAAFFARDELKGDNMYSCEKCKKLRNGVKFCKVQNFPEILCIHLKRFRHELMFSTKISTHVSFPLEGLDLQPFLAKDSPAQIVTYDLLSVICHHGTASSGHYIAYCRNNLNNLWYEFDDQSVTEVSESTVQNAEAYVLFYRKSSEEAQKERRRISNLLNIMEPSLLQFYISRQWLNKFKTFAEPGPISNNDFLCIHGGVPPRKAGYIEDLVLMLPQNIWDNLYSRYGGGPAVNHLYICHTCQIEAEKIEKRRKTELEIFIRLNRAFQKEDSPATFYCISMQWFREWESFVKGKDGDPPGPIDNTKIAVTKCGNVMLRQGADSGQISEETWNFLQSIYGGGPEVILRPPVVHVDPDILQAEEKIEVETRSL
As for B1, the binding result is on record as “binds”.
